One compound from patent publication US5208245A, “Dihydropyridine derivative” (Wakunaga Seiyaku Kabushiki Kaisha, priority 1990, dated 1993) can be followed below.

The structures appear in SMILES notation.

The nature of the series: Acute toxicity test, intravenous, mice. To be noted: mouse, in vivo, male ddY mice, observed two weeks. On the procedure:
Male ddY mice (5-7 weeks old) were divided into groups each consisting of 4 mice. The test compounds were dissolved in physiological saline containing 50% polyethylene glycol 400, which was then administered intravenously to the mice, and they were put under observation over two weeks. The analysis was done following the Van der Worden method.

In general, LD50 refers to the dose expected to kill half of the subjects tested. A low value points to a more toxic substance. As for `COC(=O)C1=C(C)NC(C)=C(C(=O)OC)C1c1ccccc1[N+](=O)[O-]` [Nifedipine, reference compound], the LD50 at 336 h stood at 5.3 mg/kg.
